Assay results: the supplement of paper PMC8166895
Counter-ions that a name gives are not always drawn. The list shows a part of the results. Most values lie at the level of the controls, where differences are scatter.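 Melting temperature was read by differential scanning fluorimetry in a single-replicate pilot screen of a library of approved drugs and clinical or known-target compounds. Compounds raising the melting point by at least 2 °C were the top stabilizing hits, and negative shifts mean destabilization.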

These compounds were tested on SARS-CoV-2 main protease (Mpro, nsp5) (assay: thermal shift ΔTm of Mpro relative to plate average Tm; higher = stronger thermal stabilization of Mpro (binding)). Details: 10 µM; protein concentration 1 µM.

Row | SMILES | thermal shift ΔTm of Mpro [°C]
1 | Cc1cc(C)c(Nc2ccnc(Nc3ccc(C#N)cc3)n2)c(C)c1 [Dapivirine (TMC120)] | -0.0313
2 | CCn1c(=O)c(-c2ccc(-c3cncc(C)n3)cc2Cl)cc2cnc(NCCC3CCN(C)CC3)nc21 | 0.192
3 | C[C@]12CC[C@@H]3c4ccc(O)cc4CC[C@H]3[C@@H]1CC[C@@H]2O [Estradiol] | -0.233
4 | CCCCCOC1CCC(NC(=O)c2cnn3c(C)cc(C)nc23)CC1 (stereo not drawn) | -0.239
5 | CCCC(CCC)C(N)=O [Valpramide] | 0.124
6 | CC(OC(=O)OC1CCCCC1)OC(=O)C1=C(CSc2nnnn2CCN(C)C)CS[C@@H]2[C@H](NC(=O)Cc3csc(N)n3)C(=O)N12 (stereo partly drawn) [Cefotiam Hexetil Hydrochloride] | 0.0946
7 | CCNC(=O)Nc1ccc(-c2nc3c(c(N4CCOC[C@@H]4C)n2)CCN(C2COC2)C3)cc1 | -0.215
8 | CC(C)(C)n1nc(Cc2cccc3ccccc23)c2c(N)ncnc21 | -0.244
9 | CN(C)c1cc(NC(=O)CNC(C)(C)C)c(O)c2c1C[C@H]1C[C@H]3[C@H](N(C)C)C(=O)C(C(N)=O)=C(O)[C@@]3(O)C(=O)C1=C2O [Tigecycline] | 0.182
10 | CCCN(CCC)S(=O)(=O)c1ccc(C(=O)O)cc1 [Probenecid] | 0.049
11 | COc1ccc(C(=C2C(=O)Nc3ccccc32)c2ccc(OC)cc2)cc1 | 0.0147
12 | CCN(CC)C(=O)c1cccc(C)c1 [Delphene] | 0.192
13 | CCN(CC)C(=O)c1cccnc1 [Corvotone] | 0.141
14 | CC(C)c1ccc(NC(=O)Cn2cnc3c2c(=O)n(C)c(=O)n3C)cc1 | -0.083
15 | CNC(=O)CNc1cnc2ccc(-c3ccc(OC)c(OC)c3)cc2n1 | 0.0348
16 | C[C@H](NC(=O)/C(C#N)=C/c1cccc(Br)n1)c1ccccc1 | -0.733
17 | CCNC(=O)c1[nH]nc(-c2cc(Cl)c(O)cc2O)c1-c1ccc(OC)cc1 | 0.263
18 | CCC(CC)n1ccc2c(C(=O)NCc3c(C)cc(C)[nH]c3=O)cc(C#N)cc21 | -0.114
19 | N#Cc1nn(-c2c(Cl)cc(C(F)(F)F)cc2Cl)c(N)c1[S+]([O-])C(F)(F)F (stereo not drawn) [Fipronil] | 0.16
20 | COc1ccc2[nH]c([S+]([O-])Cc3ncc(C)c(OC)c3C)nc2n1 (stereo not drawn) [Tenatoprazole] | -1.09
21 | CCOC(=O)CCNc1cc(N2CCc3ccccc3CC2)nc(-c2ccccn2)n1 | -0.102

Row | SMILES | thermal shift ΔTm of Mpro [°C]
22 | CN1CCN(C(=O)C2C(C(=O)O)[C@H]3CC[C@@H]2O3)CC1 (stereo partly drawn) | -0.0726
23 | CN(C)CCOC(c1ccccc1)c1ccccc1 [Diphenhydramine HCl] | 0.075
24 | Cc1cc(=O)oc2c(C=O)c(O)ccc12 | -0.00868
25 | CC(=O)[C@H]1CC[C@H]2[C@@H]3CCC4=CC(=O)CC[C@]4(C)[C@H]3CC[C@]12C [Progesterone] | -0.0859
26 | Cn1cc(CNCC2CCN(c3ncc(C(=O)NO)cn3)CC2)c2ccccc21 | 0.206
27 | Cn1cc(CNCC2CCN(c3ncc(C(=O)NO)cn3)CC2)c2ccccc21 [Quisinostat] | 0.0106
28 | O=P(O)(NCCCl)NCCCl [Palifosfamide] | -0.0831
29 | CN(C)CC/C=C1/c2ccccc2Sc2ccc(Cl)cc21 [Chlorprothixene] | -0.0143
30 | CN1CCN(Cc2ccc(NC(=O)Cc3ccc(Oc4cc(NC(=O)C5CC5)ncn4)cc3)cc2C(F)(F)F)CC1 | -0.0715
31 | C1=Cc2ccccc2Nc2ccccc21 [Iminostilbene] | -0.194
32 | COc1cc(-c2cn(C)c(=O)c3cnccc23)cc(OC)c1CN(C)C | 0.00184
33 | CCOC(=O)C1=C[C@@H](OC(CC)CC)[C@H](NC(C)=O)[C@@H](N)C1 [Oseltamivir phosphate] | -0.0194
34 | C[C@]12CCC(=O)C=C1CC[C@@H]1[C@@H]2[C@@H](O)C[C@@]2(C)[C@H]1CC[C@]2(O)C(=O)CO [Hydrocortisone] | -0.206
35 | C=CC(=O)Nc1cccc(C)c1Nc1ncc2cc(-c3c(Cl)c(OC)cc(OC)c3Cl)ccc2n1 | -0.134
36 | N[C@@H](CSCCB(O)O)C(=O)O | 0.0208
37 | COc1ccccc1C(=O)Nc1cc2c(cc1N1CCCC1)n(C)c(=O)n2C | 0.161
38 | O=C(CCc1ccc(O)cc1)c1c(O)cc(O)cc1O[C@@H]1O[C@H](CO)[C@@H](O)[C@H](O)[C@H]1O [Phlorizin] | -0.164
39 | Oc1ncnc2[nH]ncc12 [Allopurinol] | 0.0245
40 | CN(N=O)C(=O)NC1C(O)OC(CO)C(O)C1O (stereo not drawn) [Streptozotocin (STZ)] | 0.227
41 | CC(=O)c1ccc(O)cc1 [Piceol] | -0.0331
42 | C=C[C@]1(C)C[C@@H](OC(=O)CS[C@@H]2C[C@H]3CC[C@@H](C2)N3C)[C@]2(C)[C@H](C)CC[C@]3(CCC(=O)[C@H]32)[C@@H](C)[C@@H]1O [Retapamulin] | 0.0526

Row | SMILES | thermal shift ΔTm of Mpro [°C]
43 | COCc1c(-c2ccc(NC(=O)Nc3cc(C(F)(F)F)ccc3F)c(F)c2)c2c(N)ncnn2c1CN1CCOCC1 | -0.195
44 | CO/N=C(\C(=O)N[C@@H]1C(=O)N2C(C(=O)OCOC(=O)C(C)(C)C)=C(/C=C\c3scnc3C)CS[C@H]12)c1csc(N)n1 [Cefditoren Pivoxil] | 0.00186
45 | CCC(=O)N1CCN(c2ccc(-n3c(=O)ccc4cnc5ccc(-c6cnc7ccccc7c6)cc5c43)cc2C(F)(F)F)CC1 [Torin 1] | -0.0294
46 | Cn1cnc(-c2cc3nccc(Oc4ccc(NC(=S)NC(=O)Cc5ccccc5)cc4F)c3s2)c1 | 0.449
47 | Cc1onc(-c2ccccc2)c1-c1ccc(S(N)(=O)=O)cc1 [Valdecoxib] | 0.0975
48 | CCCc1cc(=O)[nH]c(=S)[nH]1 [Propylthiouracil] | 0.144
49 | C=C1C(=O)O[C@@H]2/C=C(\C)CC/C=C(\C)CC[C@@H]12 [Costunolide] | 0.265
50 | O=C(Nc1ccccc1)c1cc([N+](=O)[O-])ccc1Cl | -0.0782
51 | O=c1cc(-c2cccc3c2Sc2ccccc2S3)oc(N2CCOCC2)c1 | -0.212
52 | COc1ccc2cc(C(=O)O)ccc2c1 [6-Methoxy-2-naphthoic acid] | 0.141
53 | CN1CCc2c(c3ccccc3n2Cc2ccccc2)C1 [Mebhydroline] | -0.158
54 | CN1CCc2c(c3ccccc3n2Cc2ccccc2)C1 [Mebhydrolin napadisylate] | 0.0326
55 | Fc1ccc(C(c2ccc(F)cc2)N2CCN(C/C=C/c3ccccc3)CC2)cc1 [Flunarizine 2HCl] | -0.013
56 | C[C@H]1CCC/C=C/[C@@H]2C[C@H](O)C[C@H]2[C@H](O)/C=C/C(=O)O1 [Brefeldin A] | -0.0362
57 | Oc1ccc([C@H]2COc3cc(O)ccc3C2)cc1 [Equol] | -0.381
58 | Cc1ccc(Nc2c(F)cccc2Cl)c(CC(=O)O)c1 [Lumiracoxib] | -0.0685
59 | O=C(NC1CCNCC1)[C@@H]1CC[C@@H]2CN1C(=O)N2OS(=O)(=O)O [Relebactam] | 0.0837
60 | CC(C)n1cnc2c(NCc3ccccc3)nc(NCCCO)nc21 [Bohemine] | -0.0208
61 | N#Cc1c(O)c2c(-c3ccc(-c4ccccc4O)cc3)csc2[nH]c1=O | -0.0693
62 | Cc1nc2ccc(-n3ncc(C(=O)c4cc5ccccc5[nH]4)c3N)cc2[nH]1 | 0.116
63 | CCCCC(=O)O[C@H]1CC[C@H]2[C@@H]3CCc4cc(O)ccc4[C@H]3CC[C@]12C [Estradiol valerate] | 0.354

Row | SMILES | thermal shift ΔTm of Mpro [°C]
64 | N=C(N)c1ccc(OCCCCCOc2ccc(C(=N)N)cc2)cc1 [Pentamidine] | 0.13
65 | Cc1[nH]c2ccccc2c1CCNC(=O)c1cccs1 | -0.0629
66 | Cn1c(NCCN(CCO)CCCc2ccc([N+](=O)[O-])cc2)cc(=O)n(C)c1=O [Nifekalant hydrochloride] | 0.0483
67 | Cc1nc(Nc2cnn(C3CCNCC3)c2)nc2c1N(C)C(=O)c1cc3ccccc3cc1N2C | -0.386
68 | OCCOCCN1CCN(C2=Nc3ccccc3Sc3ccccc32)CC1 [Quetiapine Fumarate] | -0.0955
69 | CCC(=O)O[C@@H](O[P@](=O)(CCCCc1ccccc1)CC(=O)N1C[C@H](C2CCCCC2)C[C@H]1C(=O)O)C(C)C [Fosinopril sodium] | -0.125
70 | O=C(c1c2ccccc2cc2ccccc12)N1CCC(N2CCC[C@@H](C(=O)N3CCOCC3)C2)CC1 | 0.164
71 | COc1cccc2c1C(=O)c1c(O)c3c(c(O)c1C2=O)C[C@@](O)(C(=O)CO)C[C@@H]3O[C@H]1C[C@H](N)[C@H](O)[C@H](C)O1 [Doxorubicin (Adriamycin)] | 0.17
72 | Cc1cc(C(=O)NOCCO)c(Nc2ccc(I)cc2F)n(C)c1=O | -0.236
73 | CC1(C)S[C@@H]2[C@H](NC(=O)[C@H](N)c3ccc(O)cc3)C(=O)N2[C@H]1C(=O)O [Amoxicillin Sodium] | -0.0326
74 | CC1(C)S[C@@H]2[C@H](NC(=O)[C@H](N)c3ccc(O)cc3)C(=O)N2[C@H]1C(=O)O [Amoxicillin trihydrate] | -0.128
75 | CC1(C)S[C@@H]2[C@H](NC(=O)[C@H](N)c3ccc(O)cc3)C(=O)N2[C@H]1C(=O)O [Amoxicillin] | 0.109
76 | COc1cc(-c2cn(C)c(=O)c3cnccc23)c(OC)cc1CN(C)C | -0.0485
77 | O=C([C@@H](Cc1cccc(C(F)(F)F)c1)NS(=O)(=O)c1cc(F)c2c(c1)CCNC2)N1CCCC1 | -0.382
78 | Cc1cccc(C(=O)O)c1O [Hydroxytoluic acid] | 0.133
79 | CCCc1cc(-c2nc(-c3ccc(C)cc3)cs2)ccn1 [Fatostatin] | 0.0522
80 | O=C(C=Cc1ccccc1)NC(NC(=S)Nc1ccc(Cl)cc1)C(Cl)(Cl)Cl (stereo not drawn) | 1.39
81 | Cc1ccc2c(Br)cc(Br)c(OC(=O)c3ccccc3)c2n1 [Broxaldine] | -0.328
82 | Nc1nc(Cl)nc2c1ncn2[C@H]1C[C@H](O)[C@@H](CO)O1 [Cladribine] | 0.226
83 | COC(=O)Nc1nc2cc(C(=O)c3ccccc3)ccc2[nH]1 [Mebendazole] | -0.0312

Rewritten tab-delimited: entries from further up.
Row	SMILES	thermal shift ΔTm of Mpro [°C]
10	CCCN(CCC)S(=O)(=O)c1ccc(C(=O)O)cc1 [Probenecid]	0.049
13	CCN(CC)C(=O)c1cccnc1 [Corvotone]	0.141
36	N[C@@H](CSCCB(O)O)C(=O)O	0.0208
